These results are taken from patent US10634592B2, “Process for microextraction and detection of an analyte” (KING FAHD UNIVERSITY OF PETROLEUM AND MINERALS, priority 2015, dated 2020).

For the data set the following is noted: air dried green alga, unspiked real sample.
For `ClC(Cl)Br` [BDCM, bromodichloromethane], the “Contents in Green alga” value was 2.9 ng/g.
The result for `ClC(Br)Br` [DBCM, dibromochloromethane] reads 3.0 ng/g; that for `CC(=O)C(Cl)Cl` [DCP, 1,1-dichloro-2-propanone], 1.8 ng/g; that for `BrC(Br)Br` [TBM, tribromomethane], 2.5 ng/g.
The figure for `ClC(Cl)Cl` [TCM, trichloromethane] is 0.9 ng/g.
The figure for `CC(=O)C(Cl)(Cl)Cl` [TCP, 1,1,1-trichloro-2-propanone] is 1.9 ng/g.
